We go through one molecule from paper PMC3737541, “Structure-function analysis of the EF-hand protein centrin-2 for its intracellular localization and nucleotide excision repair” (Nucleic Acids Research, 2013).

The chains behind the UniProt entries cited, without tags or fusion partners.
UniProt P23025: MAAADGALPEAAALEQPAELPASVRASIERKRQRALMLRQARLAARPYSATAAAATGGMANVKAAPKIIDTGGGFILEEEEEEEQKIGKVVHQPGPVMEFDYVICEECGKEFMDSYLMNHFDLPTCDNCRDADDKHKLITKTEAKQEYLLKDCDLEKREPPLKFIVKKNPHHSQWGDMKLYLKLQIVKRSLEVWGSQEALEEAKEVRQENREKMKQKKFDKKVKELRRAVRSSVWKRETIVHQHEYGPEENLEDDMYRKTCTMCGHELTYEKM

Results are given in words; binding and its absence hold for the method and conditions named.

This assay addresses T1, FLAG-XPA (human, UniProt P23025 1-273).
T1 construct: XPA protein, human; also called purified recombinant XPA
In words: pull-down; FLAG-XPA (0.5 µg) immobilised on anti-DDDDK-tag magnetic beads; centrin-2 in buffer B, on ice 1 h; elution with FLAG peptide; immunoblot; no XPC/RAD23B; both purified.

B1: centrin-2 C domain, detached from the GST tag (domain or fragment, human, UniProt P41208 94-172, looked up)
chain: TQKMSEKDTKEEILKAFKLFDDDETGKISFKNLKRVAKELGENLTDEELQEMIDEADRDGDGEVSEQEFLRIMKKTSLY
notes: centrin-2, human, carboxyl-terminal (C) domain, residues 94-172; also called the C domain alone; source: E. coli BL21 (DE3), purified (GSTrap FF, HiTrap Phenyl FF), GST removed with PreScission protease; not shown: GST, N-terminal, cleaved
With B1, the binding entry is recorded as “no binding”.
